In the supplement of paper PMC10849652:
The list shows a part of the results.

The chains behind the UniProt entries cited, without tags or fusion partners. Where a name states a change or a piece, a line headed by the entry shows the natural chain unless it says otherwise.
UniProt P23219, whole entry, looked up: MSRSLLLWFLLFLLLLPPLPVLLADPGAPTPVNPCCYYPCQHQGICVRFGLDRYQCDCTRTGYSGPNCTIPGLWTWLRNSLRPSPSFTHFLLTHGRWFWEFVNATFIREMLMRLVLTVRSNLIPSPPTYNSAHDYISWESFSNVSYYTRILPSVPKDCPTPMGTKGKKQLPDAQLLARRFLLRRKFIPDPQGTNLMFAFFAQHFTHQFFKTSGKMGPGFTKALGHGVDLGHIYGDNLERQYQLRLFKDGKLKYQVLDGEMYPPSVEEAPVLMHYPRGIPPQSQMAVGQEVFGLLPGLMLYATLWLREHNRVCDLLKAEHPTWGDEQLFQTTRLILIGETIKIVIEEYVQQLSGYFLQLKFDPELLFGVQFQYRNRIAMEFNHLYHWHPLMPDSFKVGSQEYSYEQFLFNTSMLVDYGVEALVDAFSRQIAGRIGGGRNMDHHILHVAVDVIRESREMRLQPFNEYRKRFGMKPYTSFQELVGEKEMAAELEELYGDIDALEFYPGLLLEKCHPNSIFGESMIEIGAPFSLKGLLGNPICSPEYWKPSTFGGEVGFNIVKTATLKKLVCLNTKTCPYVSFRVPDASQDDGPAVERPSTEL
UniProt Q9H3S7: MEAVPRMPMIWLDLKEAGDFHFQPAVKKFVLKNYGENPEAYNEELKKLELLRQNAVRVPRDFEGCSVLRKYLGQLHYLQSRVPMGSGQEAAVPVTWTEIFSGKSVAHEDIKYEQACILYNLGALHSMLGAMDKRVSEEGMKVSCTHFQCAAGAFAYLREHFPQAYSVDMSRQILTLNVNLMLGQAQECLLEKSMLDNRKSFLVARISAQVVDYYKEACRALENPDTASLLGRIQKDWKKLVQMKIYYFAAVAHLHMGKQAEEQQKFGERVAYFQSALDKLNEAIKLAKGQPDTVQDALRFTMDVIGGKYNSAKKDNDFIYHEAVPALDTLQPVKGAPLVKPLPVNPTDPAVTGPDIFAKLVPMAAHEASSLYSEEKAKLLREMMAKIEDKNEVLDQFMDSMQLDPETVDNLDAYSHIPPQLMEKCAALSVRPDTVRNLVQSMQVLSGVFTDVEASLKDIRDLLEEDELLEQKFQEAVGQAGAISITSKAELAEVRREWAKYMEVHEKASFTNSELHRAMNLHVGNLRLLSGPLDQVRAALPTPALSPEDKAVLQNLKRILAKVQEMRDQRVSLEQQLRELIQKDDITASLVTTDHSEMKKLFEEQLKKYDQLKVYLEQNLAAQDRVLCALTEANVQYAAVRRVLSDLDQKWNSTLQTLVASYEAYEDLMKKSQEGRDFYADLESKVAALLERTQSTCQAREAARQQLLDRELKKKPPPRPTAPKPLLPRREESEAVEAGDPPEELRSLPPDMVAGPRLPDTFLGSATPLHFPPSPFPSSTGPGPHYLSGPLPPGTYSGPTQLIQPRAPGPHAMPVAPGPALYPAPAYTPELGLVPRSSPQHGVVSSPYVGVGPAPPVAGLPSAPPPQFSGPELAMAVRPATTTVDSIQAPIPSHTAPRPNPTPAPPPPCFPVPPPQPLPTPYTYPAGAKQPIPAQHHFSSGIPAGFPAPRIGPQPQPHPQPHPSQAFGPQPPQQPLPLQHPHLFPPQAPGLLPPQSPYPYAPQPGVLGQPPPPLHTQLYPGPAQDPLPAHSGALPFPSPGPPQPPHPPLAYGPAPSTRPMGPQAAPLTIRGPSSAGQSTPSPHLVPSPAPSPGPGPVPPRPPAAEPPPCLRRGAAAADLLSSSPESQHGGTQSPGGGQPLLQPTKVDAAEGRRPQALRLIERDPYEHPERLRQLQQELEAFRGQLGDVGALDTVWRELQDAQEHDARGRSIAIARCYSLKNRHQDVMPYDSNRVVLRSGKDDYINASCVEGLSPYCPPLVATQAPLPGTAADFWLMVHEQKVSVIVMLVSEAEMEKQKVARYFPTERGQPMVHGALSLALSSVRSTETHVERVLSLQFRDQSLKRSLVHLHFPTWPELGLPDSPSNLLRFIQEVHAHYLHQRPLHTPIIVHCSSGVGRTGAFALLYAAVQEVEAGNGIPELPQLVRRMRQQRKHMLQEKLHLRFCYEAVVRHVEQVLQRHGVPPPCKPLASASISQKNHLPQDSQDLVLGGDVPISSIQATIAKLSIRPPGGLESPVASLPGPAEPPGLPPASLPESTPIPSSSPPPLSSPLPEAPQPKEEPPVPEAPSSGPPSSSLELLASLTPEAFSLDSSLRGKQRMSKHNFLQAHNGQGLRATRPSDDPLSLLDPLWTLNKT
UniProt P17980, whole entry, looked up: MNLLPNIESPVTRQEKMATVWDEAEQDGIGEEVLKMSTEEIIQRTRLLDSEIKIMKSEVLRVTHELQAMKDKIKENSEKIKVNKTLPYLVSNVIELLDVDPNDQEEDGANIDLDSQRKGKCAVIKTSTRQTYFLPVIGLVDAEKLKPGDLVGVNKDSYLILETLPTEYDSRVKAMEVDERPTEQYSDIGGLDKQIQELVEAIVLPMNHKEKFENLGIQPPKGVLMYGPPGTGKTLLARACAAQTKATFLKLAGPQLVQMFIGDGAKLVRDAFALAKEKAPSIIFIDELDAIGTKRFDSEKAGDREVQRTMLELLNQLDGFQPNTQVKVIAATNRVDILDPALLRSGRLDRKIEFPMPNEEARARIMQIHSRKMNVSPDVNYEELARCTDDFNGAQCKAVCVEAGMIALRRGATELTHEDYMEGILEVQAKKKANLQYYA
UniProt O75475: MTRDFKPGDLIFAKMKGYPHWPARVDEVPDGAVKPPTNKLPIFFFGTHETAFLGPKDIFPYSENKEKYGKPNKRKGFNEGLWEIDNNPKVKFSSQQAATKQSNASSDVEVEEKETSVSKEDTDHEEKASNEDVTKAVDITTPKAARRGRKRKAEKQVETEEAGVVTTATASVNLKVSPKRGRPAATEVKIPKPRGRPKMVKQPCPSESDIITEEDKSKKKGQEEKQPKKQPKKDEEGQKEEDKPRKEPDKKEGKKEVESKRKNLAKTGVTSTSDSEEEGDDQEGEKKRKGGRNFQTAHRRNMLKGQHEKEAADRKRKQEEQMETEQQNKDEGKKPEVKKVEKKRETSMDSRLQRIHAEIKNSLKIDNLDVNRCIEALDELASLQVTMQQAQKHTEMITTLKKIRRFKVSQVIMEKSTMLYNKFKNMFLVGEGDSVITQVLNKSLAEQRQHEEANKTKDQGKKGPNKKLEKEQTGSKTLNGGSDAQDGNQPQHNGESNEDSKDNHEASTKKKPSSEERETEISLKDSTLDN
UniProt Q15269: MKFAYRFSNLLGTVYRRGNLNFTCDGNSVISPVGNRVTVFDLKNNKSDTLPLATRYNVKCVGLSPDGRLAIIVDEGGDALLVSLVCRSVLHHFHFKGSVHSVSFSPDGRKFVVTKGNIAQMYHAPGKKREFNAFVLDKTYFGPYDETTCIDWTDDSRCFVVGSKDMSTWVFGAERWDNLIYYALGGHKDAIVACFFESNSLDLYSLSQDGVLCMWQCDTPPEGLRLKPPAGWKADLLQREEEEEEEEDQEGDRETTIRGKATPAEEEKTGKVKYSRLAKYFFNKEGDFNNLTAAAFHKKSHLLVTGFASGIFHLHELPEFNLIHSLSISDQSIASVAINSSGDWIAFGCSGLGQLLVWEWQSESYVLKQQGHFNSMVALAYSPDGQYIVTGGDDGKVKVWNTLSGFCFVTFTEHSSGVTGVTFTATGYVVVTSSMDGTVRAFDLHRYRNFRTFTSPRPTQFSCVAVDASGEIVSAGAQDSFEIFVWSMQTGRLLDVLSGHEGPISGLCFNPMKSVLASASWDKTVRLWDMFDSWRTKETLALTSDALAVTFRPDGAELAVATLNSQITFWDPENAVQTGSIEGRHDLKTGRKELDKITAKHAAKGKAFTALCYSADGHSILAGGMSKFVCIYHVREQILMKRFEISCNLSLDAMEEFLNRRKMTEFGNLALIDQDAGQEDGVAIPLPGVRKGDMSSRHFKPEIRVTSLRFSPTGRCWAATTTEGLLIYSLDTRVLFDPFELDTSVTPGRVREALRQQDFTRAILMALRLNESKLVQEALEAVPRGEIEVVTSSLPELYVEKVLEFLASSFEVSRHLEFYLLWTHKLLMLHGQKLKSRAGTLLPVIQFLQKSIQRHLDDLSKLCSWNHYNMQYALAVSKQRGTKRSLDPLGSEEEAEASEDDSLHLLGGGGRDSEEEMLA
UniProt O60256: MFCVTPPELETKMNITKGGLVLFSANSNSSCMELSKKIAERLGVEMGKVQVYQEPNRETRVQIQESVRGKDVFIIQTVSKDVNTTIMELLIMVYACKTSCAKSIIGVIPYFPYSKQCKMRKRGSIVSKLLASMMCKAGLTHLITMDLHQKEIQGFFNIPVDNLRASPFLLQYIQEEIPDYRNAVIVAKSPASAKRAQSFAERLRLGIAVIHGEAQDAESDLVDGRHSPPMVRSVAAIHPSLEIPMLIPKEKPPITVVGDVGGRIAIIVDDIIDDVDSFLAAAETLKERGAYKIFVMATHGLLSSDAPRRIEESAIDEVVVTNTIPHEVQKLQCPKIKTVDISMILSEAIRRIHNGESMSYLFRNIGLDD
UniProt Q99436: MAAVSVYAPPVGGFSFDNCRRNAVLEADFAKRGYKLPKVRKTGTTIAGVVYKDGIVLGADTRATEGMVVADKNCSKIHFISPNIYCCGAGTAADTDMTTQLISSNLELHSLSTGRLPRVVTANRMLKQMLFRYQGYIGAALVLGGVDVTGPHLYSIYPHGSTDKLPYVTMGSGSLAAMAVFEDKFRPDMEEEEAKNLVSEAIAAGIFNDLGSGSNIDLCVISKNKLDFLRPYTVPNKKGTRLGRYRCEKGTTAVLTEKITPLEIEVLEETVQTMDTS
UniProt Q9UL46, whole entry, looked up: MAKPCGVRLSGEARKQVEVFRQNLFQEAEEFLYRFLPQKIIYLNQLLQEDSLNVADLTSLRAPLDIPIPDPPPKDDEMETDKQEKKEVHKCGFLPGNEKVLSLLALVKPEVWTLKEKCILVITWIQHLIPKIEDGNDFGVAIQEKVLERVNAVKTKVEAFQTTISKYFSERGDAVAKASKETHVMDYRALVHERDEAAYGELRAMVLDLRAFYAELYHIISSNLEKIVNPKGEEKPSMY
UniProt P26599: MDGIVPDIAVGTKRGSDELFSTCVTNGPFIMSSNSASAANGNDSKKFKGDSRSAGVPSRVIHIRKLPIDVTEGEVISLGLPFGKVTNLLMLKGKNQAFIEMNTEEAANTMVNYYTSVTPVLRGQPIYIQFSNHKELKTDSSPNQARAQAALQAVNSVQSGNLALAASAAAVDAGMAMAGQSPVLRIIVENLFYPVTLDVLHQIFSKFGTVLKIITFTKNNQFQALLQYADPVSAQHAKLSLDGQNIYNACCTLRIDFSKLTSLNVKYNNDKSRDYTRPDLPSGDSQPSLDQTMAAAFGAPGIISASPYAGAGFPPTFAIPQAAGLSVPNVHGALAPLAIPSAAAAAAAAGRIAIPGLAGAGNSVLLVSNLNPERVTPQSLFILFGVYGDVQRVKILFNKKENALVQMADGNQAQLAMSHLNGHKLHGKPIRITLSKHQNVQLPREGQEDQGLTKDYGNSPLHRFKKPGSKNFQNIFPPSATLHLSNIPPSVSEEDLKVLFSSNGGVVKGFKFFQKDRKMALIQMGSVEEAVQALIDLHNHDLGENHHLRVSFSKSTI
UniProt Q96M27: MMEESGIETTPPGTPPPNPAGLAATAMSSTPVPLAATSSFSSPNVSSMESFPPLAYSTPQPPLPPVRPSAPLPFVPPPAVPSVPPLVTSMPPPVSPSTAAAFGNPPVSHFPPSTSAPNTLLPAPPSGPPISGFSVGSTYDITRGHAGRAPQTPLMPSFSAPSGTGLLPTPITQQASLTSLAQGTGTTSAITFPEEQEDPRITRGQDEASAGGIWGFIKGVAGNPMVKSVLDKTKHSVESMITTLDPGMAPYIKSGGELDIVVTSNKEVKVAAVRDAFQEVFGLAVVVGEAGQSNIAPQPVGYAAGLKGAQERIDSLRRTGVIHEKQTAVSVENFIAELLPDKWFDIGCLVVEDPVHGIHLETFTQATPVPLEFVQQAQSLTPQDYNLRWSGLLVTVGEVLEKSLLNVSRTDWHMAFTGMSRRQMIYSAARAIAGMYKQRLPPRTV
UniProt Q12974: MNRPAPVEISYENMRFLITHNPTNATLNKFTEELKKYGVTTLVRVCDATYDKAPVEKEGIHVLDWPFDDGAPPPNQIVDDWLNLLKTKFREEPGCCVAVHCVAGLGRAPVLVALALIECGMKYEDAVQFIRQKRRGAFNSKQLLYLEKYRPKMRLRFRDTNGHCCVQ
UniProt P62195, whole entry, looked up: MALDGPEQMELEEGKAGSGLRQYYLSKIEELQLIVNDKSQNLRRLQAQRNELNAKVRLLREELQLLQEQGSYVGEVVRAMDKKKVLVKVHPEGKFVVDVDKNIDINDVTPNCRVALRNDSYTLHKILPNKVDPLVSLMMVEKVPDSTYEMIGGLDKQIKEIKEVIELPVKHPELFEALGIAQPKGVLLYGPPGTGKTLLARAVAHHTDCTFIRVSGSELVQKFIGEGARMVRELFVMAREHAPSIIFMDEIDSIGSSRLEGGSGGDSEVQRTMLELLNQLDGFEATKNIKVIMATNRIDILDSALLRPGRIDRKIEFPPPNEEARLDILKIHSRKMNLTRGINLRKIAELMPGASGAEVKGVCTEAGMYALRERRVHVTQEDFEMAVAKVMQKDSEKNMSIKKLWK

Tests used:
Test in all cases: log2 fold change, soluble protein after heating vs DMSO (PISA); higher = thermal stabilisation; K562 lysate, 10 uM; active = over 0.2 and 3.5 SD of the protein, either way, in both replicates (recomputed)
alvocidib = compound: CN1CC[C@H](c2c(O)cc(O)c3c(=O)cc(-c4ccccc4Cl)oc23)[C@H](O)C1 [alvocidib]
Outline: (§1)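 Quantification was by TMTpro 16plex LC-MS/MS with equalised channel sums, applied to the supernatant after 21,000xg for 90 min. Samples were crude K562 extract at 1 mg/mL protein in PBS pH 7.4 with 1 mM MgCl2, treated with 10 μM compound for 30 min, heated for 3 min across 48°C-58°C, pooled and brought to 0.5% NP-40 at 4°C. Values are log-two fold changes in thermal stability relative to solvent controls, from duplicates.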

Tubastatin A = compound: CN1CCc2c(c3ccccc3n2Cc2ccc(C(=O)NO)cc2)C1 [Tubastatin A]
Outline: as §1

[1] = compound: CNC(=O)C1=CC=CC=C1NC2=NC(=NC=C2Cl)NC3=C(C=C(C=C3)N4CCOCC4)OC
Outline: as §1

defactinib = compound: CNC(=O)c1ccc(Nc2ncc(C(F)(F)F)c(NCc3nccnc3N(C)S(C)(=O)=O)n2)cc1 [defactinib]
Outline: as §1

[2] = compound: CNc1nc(-c2ccc3c(N)n[nH]c3c2)cc(N2C[C@@H](C(=O)NC3CCCCC3)CC[C@H]2C)n1
Outline: as §1

encorafenib = compound: COC(=O)N[C@@H](C)CNc1nccc(-c2cn(C(C)C)nc2-c2cc(Cl)cc(NS(C)(=O)=O)c2F)n1 [encorafenib]
Outline: as §1

[3] = compound: COC(=O)[C@H](CCSC)NC(=O)C1=C(C=C(C=C1)NC[C@H](CS)N)C2=CC=CC=C2
Outline: as §1

alisertib = compound: COc1cc(Nc2ncc3c(n2)-c2ccc(Cl)cc2C(c2c(F)cccc2OC)=NC3)ccc1C(=O)O [alisertib]
Outline: as §1

[4] = compound: COc1cc2nc(-c3cc(F)ccc3O)nc(N[C@@H]3CNC[C@H]3C(C)(C)O)c2cc1OC
Outline: as §1

gefitinib = compound: COc1cc2ncnc(Nc3ccc(F)c(Cl)c3)c2cc1OCCCN1CCOCC1 [gefitinib]
Outline: as §1

lapatinib = compound: CS(=O)(=O)CCNCc1ccc(-c2ccc3ncnc(Nc4ccc(OCc5cccc(F)c5)c(Cl)c4)c3c2)o1 [lapatinib]
Outline: as §1

pictilisib = compound: CS(=O)(=O)N1CCN(Cc2cc3nc(-c4cccc5[nH]ncc45)nc(N4CCOCC4)c3s2)CC1 [pictilisib]
Outline: as §1

crizotinib = compound: C[C@@H](Oc1cc(-c2cnn(C3CCNCC3)c2)cnc1N)c1c(Cl)ccc(F)c1Cl [crizotinib]
Outline: as §1

[5] = compound: C[C@H](C1=CC=C(C=C1)C(=O)NC2=C3C=CNC3=NC=C2)N
Outline: as §1

duvelisib = compound: C[C@H](Nc1ncnc2nc[nH]c12)c1cc2cccc(Cl)c2c(=O)n1-c1ccccc1 [duvelisib]
Outline: as §1

gandotinib = compound: Cc1cc(Nc2cc(CN3CCOCC3)c3nc(C)c(Cc4ccc(Cl)cc4F)n3n2)n[nH]1 [gandotinib]
Outline: as §1

tozasertib = compound: Cc1cc(Nc2cc(N3CCN(C)CC3)nc(Sc3ccc(NC(=O)C4CC4)cc3)n2)n[nH]1 [tozasertib]
Outline: as §1

doramapimod = compound: Cc1ccc(-n2nc(C(C)(C)C)cc2NC(=O)Nc2ccc(OCCN3CCOCC3)c3ccccc23)cc1 [doramapimod]
Outline: as §1

bafetinib = compound: Cc1ccc(NC(=O)c2ccc(CN3CC[C@H](N(C)C)C3)c(C(F)(F)F)c2)cc1Nc1nccc(-c2cncnc2)n1 [bafetinib]
Outline: as §1

[6] = compound: Cc1cccc(CC(=O)N2CCc3c2ccc(-c2cn(C)c4ncnc(N)c24)c3F)n1
Outline: as §1

Measured: log2 fold change

PTCD3 (UniProt Q96EY7)
inactive: alvocidib 0.018 | Tubastatin A -0.01 | [1] 0.026 | defactinib 0.071 | [2] 0.005 | encorafenib 0.046 | [3] -0.033 | alisertib 0.027 | [4] -0.029 | gefitinib -0.045 | lapatinib 0.011 | pictilisib -0.002 | crizotinib -0.092 | [5] 0.036 | duvelisib 0.023 | gandotinib -0.087 | tozasertib 0.005 | doramapimod 0.029 | bafetinib -0.008 | [6] -0.068

PTGS1 isoform 6 (UniProt P23219)
inactive: alvocidib -0.154 | Tubastatin A 0.023 | [1] -0.052 | defactinib -0.119 | [2] -0.057 | encorafenib -0.008 | [3] 0.027 | alisertib -0.051 | [4] 0.021 | gefitinib -0.011 | lapatinib 0.004 | pictilisib -0.068 | crizotinib 0.007 | duvelisib -0.001 | gandotinib 0.109 | tozasertib 0.029 | doramapimod 0.036 | bafetinib -0.079 | [6] 0.093
active: [5] -0.236

PTMA (UniProt P06454)
inactive: alvocidib 0.194 | Tubastatin A 0.09 | [1] -0.104 | defactinib 0.049 | [2] 0.007 | encorafenib -0.003 | [3] -0.038 | alisertib 0.01 | [4] 0.042 | gefitinib 0.014 | lapatinib -0.059 | pictilisib -0.014 | crizotinib 0.08 | duvelisib 0.009 | gandotinib -0.277 | tozasertib 0.012 | doramapimod -0.031 | bafetinib 0.058
active: [5] 0.505 | [6] -0.375

PTPN23 (UniProt Q9H3S7)
inactive: alvocidib -0.004 | Tubastatin A -0.035 | [1] -0.03 | defactinib -0.018 | [2] 0.016 | encorafenib 0.031 | [3] -0.018 | alisertib 0.012 | [4] -0.017 | gefitinib 0.005 | lapatinib 0.003 | pictilisib -0.028 | crizotinib -0.014 | [5] 0.005 | duvelisib -0.023 | gandotinib -0.031 | tozasertib 0.013 | doramapimod 0.016 | bafetinib -0.032 | [6] 0.023

PSMC3 (UniProt P17980)
inactive: alvocidib 0.025 | Tubastatin A -0.013 | [1] 0.004 | defactinib -0.003 | [2] -0.016 | encorafenib 0.013 | [3] 0.064 | alisertib 0.027 | [4] 0 | gefitinib -0.005 | lapatinib -0.012 | pictilisib -0.009 | crizotinib -0.004 | [5] 0.044 | duvelisib 0 | gandotinib -0.07 | tozasertib 0.003 | doramapimod -0.014 | bafetinib 0.02 | [6] -0.041

PSIP1 (UniProt O75475)
inactive: alvocidib 0.022 | Tubastatin A 0.017 | [1] -0.009 | defactinib -0.018 | [2] 0.049 | encorafenib -0.003 | [3] -0.01 | alisertib -0.054 | [4] 0.006 | gefitinib -0.064 | lapatinib -0.014 | pictilisib 0.019 | crizotinib -0.023 | [5] -0.007 | duvelisib 0.003 | gandotinib 0.004 | tozasertib 0.002 | doramapimod 0.017 | bafetinib -0.011 | [6] -0.006

Quoted from above (two entries):
PTPN23 (UniProt Q9H3S7)
inactive: alvocidib -0.004 | Tubastatin A -0.035 | [1] -0.03 | defactinib -0.018 | [2] 0.016 | encorafenib 0.031 | [3] -0.018 | alisertib 0.012 | [4] -0.017 | gefitinib 0.005 | lapatinib 0.003 | pictilisib -0.028 | crizotinib -0.014 | [5] 0.005 | duvelisib -0.023 | gandotinib -0.031 | tozasertib 0.013 | doramapimod 0.016 | bafetinib -0.032 | [6] 0.023

PSMC3 (UniProt P17980)
inactive: alvocidib 0.025 | Tubastatin A -0.013 | [1] 0.004 | defactinib -0.003 | [2] -0.016 | encorafenib 0.013 | [3] 0.064 | alisertib 0.027 | [4] 0 | gefitinib -0.005 | lapatinib -0.012 | pictilisib -0.009 | crizotinib -0.004 | [5] 0.044 | duvelisib 0 | gandotinib -0.07 | tozasertib 0.003 | doramapimod -0.014 | bafetinib 0.02 | [6] -0.041

Further records follow:

PWP2 (UniProt Q15269)
inactive: alvocidib -0.014 | Tubastatin A -0.073 | [1] 0.027 | defactinib 0.042 | [2] 0.061 | encorafenib 0.035 | [3] -0.033 | alisertib 0.004 | [4] -0.007 | gefitinib -0.057 | lapatinib -0.017 | pictilisib -0.012 | crizotinib 0.001 | [5] -0.016 | duvelisib 0.005 | gandotinib -0.075 | tozasertib -0.013 | doramapimod -0.017 | bafetinib -0.023 | [6] 0.029

PRPSAP2 (UniProt O60256)
inactive: alvocidib -0.059 | Tubastatin A 0.011 | [1] 0.02 | defactinib 0.007 | [2] 0.023 | encorafenib 0.007 | [3] -0.012 | alisertib -0.007 | [4] -0.006 | gefitinib -0.053 | lapatinib -0.009 | pictilisib -0.03 | crizotinib 0.025 | [5] -0.141 | duvelisib -0.001 | gandotinib 0.067 | tozasertib -0.028 | doramapimod -0.012 | bafetinib 0.016 | [6] 0.05

PSMB7 (UniProt Q99436)
inactive: alvocidib -0.024 | Tubastatin A 0.032 | [1] -0.008 | defactinib -0.025 | [2] 0.027 | encorafenib -0.016 | [3] 0.016 | alisertib -0.03 | [4] 0.029 | gefitinib -0.012 | lapatinib -0.029 | pictilisib 0.007 | crizotinib 0 | [5] -0.03 | duvelisib 0.046 | gandotinib 0.027 | tozasertib -0.017 | doramapimod 0.014 | bafetinib 0.007 | [6] -0.021

PSMD5 (UniProt Q16401)
inactive: alvocidib -0.016 | Tubastatin A -0.036 | [1] -0.026 | defactinib -0.003 | [2] 0 | encorafenib 0.004 | [3] -0.035 | alisertib 0.013 | [4] -0.011 | gefitinib -0.014 | lapatinib -0.006 | pictilisib -0.003 | crizotinib -0.019 | [5] 0.03 | duvelisib -0.007 | gandotinib -0.067 | tozasertib -0.012 | doramapimod 0.015 | bafetinib 0.007 | [6] 0.017

PSME2 (UniProt Q9UL46)
inactive: alvocidib -0.12 | Tubastatin A 0.034 | [1] -0.013 | defactinib -0.027 | [2] -0.032 | encorafenib 0 | [3] -0.002 | alisertib 0.023 | [4] 0.01 | gefitinib 0.049 | lapatinib 0.006 | pictilisib 0.047 | crizotinib 0.009 | [5] -0.074 | duvelisib 0.062 | gandotinib 0.093 | tozasertib 0.028 | doramapimod -0.001 | bafetinib 0.001 | [6] 0.105

PTBP1 (UniProt P26599)
inactive: alvocidib 0.011 | Tubastatin A 0.007 | [1] 0.04 | defactinib 0.015 | [2] 0.113 | encorafenib -0.034 | [3] 0.064 | alisertib 0.02 | [4] -0.007 | gefitinib -0.069 | lapatinib 0.007 | pictilisib 0.003 | crizotinib -0.02 | [5] 0.022 | duvelisib -0.053 | gandotinib -0.014 | tozasertib -0.054 | doramapimod 0.035 | bafetinib 0.026 | [6] -0.024

PRRC1 (UniProt Q96M27)
inactive: alvocidib -0.044 | Tubastatin A 0.038 | [1] 0.007 | defactinib 0.038 | [2] 0.032 | encorafenib 0.075 | [3] -0.025 | alisertib 0.014 | [4] -0.003 | gefitinib -0.005 | lapatinib 0.053 | pictilisib -0.049 | crizotinib 0.07 | [5] -0.002 | duvelisib 0.007 | gandotinib 0.067 | tozasertib 0.016 | doramapimod -0.016 | bafetinib -0.047 | [6] 0.034

PTP4A2 (UniProt Q12974)
inactive: alvocidib 0.101 | Tubastatin A -0.013 | [1] 0.057 | defactinib 0.043 | [2] 0.05 | encorafenib 0.014 | [3] -0.02 | alisertib -0.01 | [4] -0.004 | gefitinib -0.111 | lapatinib -0.004 | pictilisib 0.019 | crizotinib 0.041 | [5] 0.041 | duvelisib -0.041 | gandotinib -0.112 | tozasertib 0 | doramapimod 0.055 | bafetinib -0.038 | [6] -0.124

PSMC5 (UniProt P62195)
inactive: alvocidib 0.044 | Tubastatin A -0.001 | [1] 0.014 | defactinib -0.003 | [2] -0.002 | encorafenib 0.001 | [3] 0.032 | alisertib -0.005 | [4] -0.006 | gefitinib -0.016 | lapatinib -0.009 | pictilisib -0.01 | crizotinib -0.021 | [5] 0.076 | duvelisib 0.017 | gandotinib -0.125 | tozasertib 0.026 | doramapimod 0.008 | bafetinib 0.003 | [6] -0.086
